By UniProt entry, the sequences of proteins in these tests, tags left out.
UniProt O43525, whole entry: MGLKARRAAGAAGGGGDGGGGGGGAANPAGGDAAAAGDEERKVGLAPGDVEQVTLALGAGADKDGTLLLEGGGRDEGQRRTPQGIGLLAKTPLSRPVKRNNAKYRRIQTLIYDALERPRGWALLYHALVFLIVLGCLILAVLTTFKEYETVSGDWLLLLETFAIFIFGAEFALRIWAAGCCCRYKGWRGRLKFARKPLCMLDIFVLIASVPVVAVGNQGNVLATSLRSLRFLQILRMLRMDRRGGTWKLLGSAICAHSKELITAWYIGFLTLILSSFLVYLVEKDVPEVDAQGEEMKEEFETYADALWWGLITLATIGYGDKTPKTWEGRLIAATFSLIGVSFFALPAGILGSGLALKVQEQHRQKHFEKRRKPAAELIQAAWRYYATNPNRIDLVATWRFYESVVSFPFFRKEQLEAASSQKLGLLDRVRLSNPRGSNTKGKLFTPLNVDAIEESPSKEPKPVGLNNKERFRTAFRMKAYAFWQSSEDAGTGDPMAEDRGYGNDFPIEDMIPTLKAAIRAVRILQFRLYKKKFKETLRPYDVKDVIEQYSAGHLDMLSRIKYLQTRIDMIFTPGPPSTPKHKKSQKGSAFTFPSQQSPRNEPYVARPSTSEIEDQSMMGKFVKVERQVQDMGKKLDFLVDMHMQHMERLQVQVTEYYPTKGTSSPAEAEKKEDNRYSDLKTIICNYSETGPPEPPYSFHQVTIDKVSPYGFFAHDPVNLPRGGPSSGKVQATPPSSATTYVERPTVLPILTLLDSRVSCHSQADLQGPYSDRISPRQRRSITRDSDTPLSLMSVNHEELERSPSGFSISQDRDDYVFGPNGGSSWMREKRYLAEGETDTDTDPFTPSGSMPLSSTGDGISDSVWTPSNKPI
UniProt O43526, whole entry: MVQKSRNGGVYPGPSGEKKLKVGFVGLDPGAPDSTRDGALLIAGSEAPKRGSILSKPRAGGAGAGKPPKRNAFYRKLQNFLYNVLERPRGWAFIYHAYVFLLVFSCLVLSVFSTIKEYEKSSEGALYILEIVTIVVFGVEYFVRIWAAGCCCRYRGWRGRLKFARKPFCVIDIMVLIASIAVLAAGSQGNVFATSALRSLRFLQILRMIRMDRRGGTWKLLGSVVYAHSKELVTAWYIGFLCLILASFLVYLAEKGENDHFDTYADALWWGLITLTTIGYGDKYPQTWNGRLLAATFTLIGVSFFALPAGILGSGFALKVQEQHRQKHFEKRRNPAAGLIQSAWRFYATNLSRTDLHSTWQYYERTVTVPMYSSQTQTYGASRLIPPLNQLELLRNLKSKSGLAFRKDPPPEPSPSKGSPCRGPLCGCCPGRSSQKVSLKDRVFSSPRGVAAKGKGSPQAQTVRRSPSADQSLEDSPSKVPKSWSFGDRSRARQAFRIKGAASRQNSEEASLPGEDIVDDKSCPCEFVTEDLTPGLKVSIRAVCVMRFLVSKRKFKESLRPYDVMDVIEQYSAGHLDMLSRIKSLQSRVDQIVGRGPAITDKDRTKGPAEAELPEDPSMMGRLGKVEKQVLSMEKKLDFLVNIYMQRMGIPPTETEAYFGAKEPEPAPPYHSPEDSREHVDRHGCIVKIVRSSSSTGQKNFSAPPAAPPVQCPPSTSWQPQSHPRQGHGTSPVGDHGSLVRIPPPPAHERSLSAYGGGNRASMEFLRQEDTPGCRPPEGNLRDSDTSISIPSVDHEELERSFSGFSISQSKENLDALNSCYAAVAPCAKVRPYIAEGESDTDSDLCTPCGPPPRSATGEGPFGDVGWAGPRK
UniProt Q12809, whole entry: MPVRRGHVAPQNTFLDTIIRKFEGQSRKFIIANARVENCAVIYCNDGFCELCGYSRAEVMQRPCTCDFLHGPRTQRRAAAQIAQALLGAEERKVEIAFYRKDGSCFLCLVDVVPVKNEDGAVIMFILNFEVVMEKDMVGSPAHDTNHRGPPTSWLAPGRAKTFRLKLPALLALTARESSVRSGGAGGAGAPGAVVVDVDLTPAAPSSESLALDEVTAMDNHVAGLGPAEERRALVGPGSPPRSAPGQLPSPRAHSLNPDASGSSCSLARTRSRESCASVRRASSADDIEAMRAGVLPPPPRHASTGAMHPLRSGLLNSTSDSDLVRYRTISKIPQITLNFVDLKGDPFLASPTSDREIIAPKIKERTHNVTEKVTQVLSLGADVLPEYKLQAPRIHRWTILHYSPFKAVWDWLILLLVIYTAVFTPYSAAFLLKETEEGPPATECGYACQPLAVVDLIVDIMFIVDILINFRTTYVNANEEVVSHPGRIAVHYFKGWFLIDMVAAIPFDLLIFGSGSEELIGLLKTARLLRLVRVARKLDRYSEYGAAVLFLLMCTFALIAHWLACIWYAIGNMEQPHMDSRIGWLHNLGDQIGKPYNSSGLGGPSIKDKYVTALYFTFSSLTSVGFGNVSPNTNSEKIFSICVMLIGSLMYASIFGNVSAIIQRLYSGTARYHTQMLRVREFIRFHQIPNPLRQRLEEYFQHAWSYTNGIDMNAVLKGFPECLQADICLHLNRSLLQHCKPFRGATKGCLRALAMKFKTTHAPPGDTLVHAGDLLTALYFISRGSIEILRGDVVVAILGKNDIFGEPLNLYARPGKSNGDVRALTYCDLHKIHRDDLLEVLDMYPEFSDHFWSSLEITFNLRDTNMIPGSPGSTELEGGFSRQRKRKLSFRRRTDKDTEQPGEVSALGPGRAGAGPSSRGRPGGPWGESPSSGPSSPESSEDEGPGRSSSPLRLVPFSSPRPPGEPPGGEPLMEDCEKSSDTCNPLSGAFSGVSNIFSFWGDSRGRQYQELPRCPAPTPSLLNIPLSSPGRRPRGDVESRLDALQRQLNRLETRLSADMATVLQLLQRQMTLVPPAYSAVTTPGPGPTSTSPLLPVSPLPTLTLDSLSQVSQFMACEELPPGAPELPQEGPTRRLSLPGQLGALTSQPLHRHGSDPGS

In patent US10676438B2, “KCNQ2-5 channel activator” (Ono Pharmaceutical Co., Ltd., priority 2014, dated 2020):

Experiments:
[1] = target: Human KCNQ2/3 channel (Homo sapiens (Human), UniProt O43525+O43526); assay: Opening action with respect to KCNQ2/3 channel by depolarization stimulation (thallium influx, FLIPR); conditions: read-out: KCNQ2/3 ECrtg50; concentration giving 50% of maximum reaction of retigabine (10 μM); human KCNQ2/3 expression CHO-DHFR- cells; 5 mM potassium and 0.5 mM thallium
[2] = tested on: urinary bladder extracted from rat; assay: Relaxing action on urinary bladder extracted from rat (rat Magnus test); conditions: read-out: Rat Magnus test IC20; concentration at which tension change rate is -20%; carbachol 1 μM-induced contraction of rat urinary bladder strips
[3] = Solubility test (DMSO precipitation method, Pharmacopoeia of Japan elution test second solution); conditions: Pharmacopoeia of Japan elution test second solution pH=6.8, room temperature, five hours; quantitation range 5 to 100 μM
[4] = target: hERG channel (Homo sapiens (Human), UniProt Q12809); assay: Evaluation of action on hERG IKr current (patch-clamp); format: cell-based; conditions: read-out: IC50 (50% inhibitory activity of hERG channel); HEK293 cell overexpressing hERG, maximum tail current, 10 minutes after application

pEC50 [1]: 6.10 | Solubility [3]: 91 µM (≈ 40.3 µg/mL)
SMILES: C[C@@](O)(c1cc(Cl)c(NC(=O)NCc2ccc(Cl)cn2)c(Cl)c1)C(F)(F)F
IC20 [2]: 300 nM | pIC50 [4]: < 5.00

pEC50, pIC50: −log10 of the molar value. ≈ marks a conversion by molar mass, not a printed value. Structures were worked out from names or drawings and are uncertain.
